Measured values from patent US9055750B2 (priority 2012, dated 2015).
Where two headings read alike, the source gives them in different places. Some results were stated once for a whole list of compounds, not compound by compound.

What was measured:
Format in all cases: in vivo
Phytophthora infestans [1] = details: 250 ppm, tomato plants inoculated the next day after spraying; untreated plants 80%
Phytophthora infestans [2] = details: 250 ppm, tomato plants inoculated seven days after spraying; untreated plants 60%
Phakopsora pachyrhizi = assay: Protective control of soy bean rust on soy beans (glass house); details: 250 ppm, soybean seedlings sprayed 1 day before inoculation; untreated plants 94%
Puccinia recondita = assay: Preventative control of brown rust on wheat (glass house); details: 250 ppm, wheat seedlings sprayed the day before inoculation; untreated plants 86%
Septoria tritici = assay: Preventative control of leaf blotch on wheat (glass house); details: 250 ppm, wheat seedlings sprayed the day before inoculation; untreated plants 93%
Botrytis cinerea = assay: Preventative fungicidal control of Botrytis cinerea on leaves of green pepper (glass house); details: 250 ppm, green pepper seedlings sprayed the day before inoculation; untreated plants 89%

SMILES	diseased leaf area (Phytophthora infestans [1])	diseased leaf area (Phakopsora pachyrhizi)	diseased leaf area (Septoria tritici)	other results
COc1c(Cl)ncnc1NCCc1ccc(Oc2ccnc(C(F)(F)F)c2)cc1 [Compound V-21]	at most 20%	–	–	–
Cc1c(Cl)ncnc1NCCc1ccc(Oc2ncnc(Cl)c2C)cc1 [Compound V-28]	at most 20%	–	–	diseased leaf area (Phytophthora infestans [2]): at most 20%
Cc1c(Cl)ncnc1NCCc1ccc(Oc2ccnc(C#N)c2)cc1 [Compound V-45]	–	–	–	diseased leaf area (Phytophthora infestans [2]): at most 20%
CCc1c(Cl)ncnc1NCCc1ccc(Oc2cc(C(F)(F)F)ccn2)c(F)c1 [Compound V-34]	–	at most 20%	–	–
N#Cc1c(Cl)ncnc1NCCc1ccc(Oc2cc(C(F)(F)F)ccn2)cc1 [Compound V-15]	at most 20%	–	at most 20%	diseased leaf area (Puccinia recondita): at most 20%; diseased leaf area (Phytophthora infestans [2]): at most 20%; diseased leaf area (Botrytis cinerea): at most 20%
Cc1nc(Cl)cc(NCCc2ccc(Oc3cc(C(F)(F)F)ccn3)cc2F)n1 [Compound V-43]	–	at most 20%	–	–
COc1c(Cl)ncnc1NCCc1ccc(Oc2ncnc(Cl)c2OC)cc1 [Compound V-17, 6-chloro-N-[2-[4-(6-chloro-5-methoxy-pyrimidin-4-yl)oxyphenyl]ethyl]-5-methoxy-pyrimidin-4-amine]	at most 20%	at most 20%	–	diseased leaf area (Phytophthora infestans [2]): at most 20%
Fc1cc(Oc2ccnc(C(F)(F)F)c2)ccc1CCNc1ncnc(Cl)c1Br [Compound V-36]	–	–	at most 20%	–
Nc1nc(Cl)cc(NCCc2ccc(Oc3cc(C(F)(F)F)ccn3)cc2F)n1 [Compound V-42]	–	at most 20%	–	–
COc1cc(CCNc2ncnc(Cl)c2OC)ccc1Oc1cc(C(F)(F)F)ccn1 [Compound V-16]	at most 20%	at most 20%	at most 20%	–
COc1cc(CCNc2ncnc(Cl)c2Cl)ccc1Oc1cc(C(F)(F)F)ccn1 [Compound V-8]	–	at most 20%	–	–
COC(=O)c1c(Cl)ncnc1NCCc1ccc(Oc2ccnc(C(F)(F)F)c2)cc1F [Compound V-6]	at most 20%	–	at most 20%	–
Cc1c(Cl)ncnc1NC(CO)Cc1ccc(Oc2cc(C(F)(F)F)ccn2)cc1 (stereo not drawn) [Compound V-24]	at most 20%	–	–	–
Cc1c(Cl)ncnc1NCCc1ccc(Oc2cc(C(F)(F)F)ccn2)c(F)c1 [Compound V-44]	–	at most 20%	–	–
FC(F)(F)c1ccnc(Oc2ccc(CCNc3cc(Cl)ncn3)cc2)c1 [Compound V-2]	–	at most 20%	at most 20%	diseased leaf area (Puccinia recondita): at most 20%; diseased leaf area (Botrytis cinerea): at most 20%
Fc1cc(Oc2cc(C(F)(F)F)ccn2)ccc1CCNc1nc(Cl)nc(Cl)c1Cl [Compound V-33]	–	–	at most 20%	–
Fc1cc(Oc2cc(C(F)(F)F)ccn2)ccc1CCNc1ncnc(Cl)c1F [Compound V-10]	–	at most 20%	–	diseased leaf area (Puccinia recondita): at most 20%
COC(=O)c1c(Cl)ncnc1NCCc1ccc(Oc2cc(C(F)(F)F)ccn2)cc1F [Compound V-32]	–	at most 20%	at most 20%	–
COC(=O)C(Cc1ccc(Oc2cc(C(F)(F)F)ccn2)cc1)Nc1ncnc(Cl)c1OC (stereo not drawn) [Compound V-48]	–	at most 20%	–	–
COc1c(Cl)ncnc1NCCc1ccc(Oc2cc(C(F)(F)F)ccn2)cc1F [Compound V-4]	–	–	–	diseased leaf area (Puccinia recondita): at most 20%; diseased leaf area (Phytophthora infestans [2]): at most 20%; diseased leaf area (Botrytis cinerea): at most 20%
COC(=O)c1c(Cl)ncnc1NCCc1ccc(Oc2ccnc(C(F)(F)F)c2)cc1 [Compound V-5]	–	at most 20%	at most 20%	diseased leaf area (Puccinia recondita): at most 20%
FC(F)(F)c1ccnc(Oc2ccc(CCNc3ncnc(Cl)c3Cl)cc2)c1 [Compound V-1]	–	at most 20%	at most 20%	diseased leaf area (Puccinia recondita): at most 20%
N#Cc1c(Cl)ncnc1NCCc1ccc(Oc2cc(C(F)(F)F)ccn2)cc1F [Compound V-29]	at most 20%	–	at most 20%	–
Cc1nc(Cl)c(C(C)(C)C)c(NCCc2ccc(Oc3ccnc(C(F)(F)F)c3)cc2F)n1 [Compound V-40]	–	–	at most 20%	diseased leaf area (Botrytis cinerea): at most 20%
Fc1cc(Oc2ccnc(C(F)(F)F)c2)ccc1CCNc1ncnc(Cl)c1F [Compound V-11]	–	at most 20%	at most 20%	diseased leaf area (Puccinia recondita): at most 20%

SMILES	diseased leaf area (Phytophthora infestans [1])	diseased leaf area (Phakopsora pachyrhizi)	diseased leaf area (Septoria tritici)	other results
Cc1nc(Cl)c(C)c(NCCc2ccc(Oc3ccnc(C(F)(F)F)c3)cc2F)n1 [Compound V-38]	–	–	–	diseased leaf area (Puccinia recondita): at most 20%
OCC(Cc1ccc(Oc2cc(C(F)(F)F)ccn2)cc1)Nc1ncnc(Cl)c1Cl (stereo not drawn) [Compound V-47]	at most 20%	at most 20%	–	–
Cc1c(Cl)ncnc1NCCc1ccc(Oc2ccc(C#N)cn2)cc1 [Compound V-46]	at most 20%	–	–	–
CCc1c(Cl)ncnc1NCCc1ccc(Oc2ccnc(C(F)(F)F)c2)c(F)c1 [Compound V-35]	–	–	–	diseased leaf area (Puccinia recondita): at most 20%
COc1c(Cl)ncnc1NCCc1ccc(Oc2cc(C#N)ccn2)cc1 [Compound V-22]	at most 20%	–	–	–
COc1c(Cl)ncnc1NCCc1ccc(Oc2ccnc(C#N)c2)cc1 [Compound V-18]	at most 20%	–	–	–
Cc1cc(CCNc2ncnc(Cl)c2C)ccc1Oc1cc(C(F)(F)F)ccn1 [Compound V-37]	–	at most 20%	at most 20%	–
COc1c(Cl)ncnc1NC(CO)Cc1ccc(Oc2cc(C(F)(F)F)ccn2)cc1 (stereo not drawn) [Compound V-23]	at most 20%	at most 20%	–	diseased leaf area (Phytophthora infestans [2]): at most 20%
COc1cc(CCNc2ncnc(Cl)c2OC)ccc1Oc1ccnc(C(F)(F)F)c1 [Compound V-20]	at most 20%	–	–	–
Cc1c(Cl)ncnc1NCCc1ccc(Oc2cc(C(F)(F)F)ccn2)c(Cl)c1 [Compound V-13]	–	–	at most 20%	diseased leaf area (Botrytis cinerea): at most 20%
Fc1cc(Oc2cc(C(F)(F)F)ccn2)ccc1CCNc1ncnc(F)c1Br [Compound V-12]	–	–	at most 20%	diseased leaf area (Botrytis cinerea): at most 20%
COc1c(Cl)ncnc1N(C)CCc1ccc(Oc2cc(C(F)(F)F)ccn2)cc1F [Compound V-14]	–	–	at most 20%	–
COc1c(Cl)ncnc1NCCc1ccc(Oc2cc(C(F)(F)F)ccn2)cc1F [Compound V-3, 6-chloro-N-[2-[2-fluoro-4-[[4-(trifluoromethyl)-2-pyridyl]oxy]phenyl]ethyl]-5-methoxy-pyrimidin-4-amine]	at most 20%	at most 20%	at most 20%	–
COc1c(Cl)ncnc1N(C)CCc1ccc(Oc2cc(C(F)(F)F)ccn2)cc1F [Compound V-27]	at most 20%	at most 20%	–	diseased leaf area (Puccinia recondita): at most 20%
COCC(Cc1ccc(Oc2cc(C(F)(F)F)ccn2)cc1)Nc1ncnc(Cl)c1C (stereo not drawn) [Compound V-49]	–	–	–	diseased leaf area (Phytophthora infestans [2]): at most 20%
CC(Cc1ccc(Oc2ccnc(C(F)(F)F)c2)cc1)Nc1ncnc(Cl)c1Cl (stereo not drawn) [Compound V-30]	–	–	at most 20%	–
Fc1cc(Oc2cc(C(F)(F)F)ccn2)ccc1CCNc1ncnc(Cl)c1Cl [Compound V-7]	–	–	at most 20%	diseased leaf area (Puccinia recondita): at most 20%
Cc1c(Cl)ncnc1NCCc1ccc(Oc2ccnc(C(F)(F)F)c2)cc1F [Compound V-9]	at most 20%	–	at most 20%	–
Fc1cc(Oc2cc(C(F)(F)F)ccn2)ccc1CCNc1ncnc(Cl)c1Br [Compound V-31]	–	at most 20%	at most 20%	–
Cc1nc(Cl)c(C)c(NCCc2ccc(Oc3cc(C(F)(F)F)ccn3)cc2F)n1 [Compound V-26]	at most 20%	at most 20%	at most 20%	diseased leaf area (Puccinia recondita): at most 20%
COc1c(Cl)ncnc1NCCc1ccc(Oc2cc(C(F)(F)F)ccn2)cc1 [Compound V-19]	at most 20%	–	–	–
CCc1c(Cl)ncnc1NCCc1ccc(Oc2ncnc(Cl)c2CC)cc1 [Compound V-41]	–	–	–	diseased leaf area (Phytophthora infestans [2]): at most 20%
Cc1nc(Cl)c(Cl)c(NCCc2ccc(Oc3cc(C(F)(F)F)ccn3)cc2F)n1 [Compound V-25]	–	–	–	diseased leaf area (Puccinia recondita): at most 20%
Cc1nc(Cl)c(C(C)(C)C)c(NCCc2ccc(Oc3cc(C(F)(F)F)ccn3)cc2F)n1 [Compound V-39]	–	–	at most 20%	–
